# This is one part of the list.
# B1: il2ra_site1_1z92_sap_20_mot_22370d59370c406a0c205a431f537cfa_0001_000000027_0001_1_14_H_._HHH_b2_07892_af2_0001_0000400011_0000001_0_0001_af2pred_0001_af2pred_1 (protein)
# chain: SSSSSSERNARIIVRILVELANLSEEQEEELRELAEELVKRGYSFEQIARILHELAMKLASSSSS
# B2: il2ra_site1_3nfp_normal_mot_HHH_b1_05462_000000101_0001_1_15_H_._HHH_b2_00323_af2_0001_0000400024_0000001_1 (protein)
# chain: SSSSSEEEREVEELLEEAKRLLEEGNFEEAVKVAEEAMKVAARANDDELDELIQEFVQKASSSSS
# B3: il2ra_site2_3nfp_normal_mot_HHH_b1_04622_000000276_0001_1_16_H_._HHH_b2_06681_af2_0001_0000900032_0000001_0 (protein)
# chain: SSSSDEADLEAYELLEEALELIRNGNPEEAEEVLKEVKELAERHNNRVLRRSVETLEELLSSSSS
# B4: il2ra_site1_3nfp_normal_mot_HHH_b2_05589_af2_000000178_0001_1_18_H_._HHH_b1_05025_af2_0001_0000200005_0000001_0 (protein)
# chain: SSSSDTEEALRIDREAWEVRRELQERGNEEEAHELSRLAFELLRHGDPRIAEEIEELLKKLSSSS
# B5: il2ra_site2_2erj_sap_24_mot_HHH_b1_07975_000000000_0001_41_57_H_._HHH_b1_08466_af2_0001_0000800020_0000001_0_0001_af2pred_0001_1_af2pred_swapped (protein)
# chain: SSSSSEEEEELKEFIEELVREFGLSEEVQKKLEALARNALEEGIDEEAIKLFLKLLAEKTSSSSS
# B6: il2ra_site2_3nfp_normal_mot_HHH_b2_03679_000000086_0001_41_56_H_._HHH_b2_07687_0001_0000300013_0000001_0 (protein)
# chain: SSSSSSDEAEEYVRAAIELAKDAEDPEQARRVLELALKLARSINDPELVEEIEELLEELSSSSSS
# B7: il2ra_site1_2b5i_normal_mot_ems_3hM_3687_af2_000000248_0001_45_64_H_._HHH_b1_00736_af2_0001_0000600021_0000001_0_af2pred_dldesign_0_af2pred (protein)
# chain: SSSSSSKREEIERLVAEAERLKAAGRYREALKALEEAKKLADELNDEEKVEEIERLAKELSSSSS
# B8: il2ra_site2_3nfp_sap_18_mot_HHH_b2_00232_000000252_0001_23_39_H_._HHH_b1_05163_0001_0000100002_0000001_0_0001 (protein)
# chain: SDEWEKRLAEMMLEWAEFIAKDISNDELREEAERLVEEAKEIDDPEEARRVAARVALIAAEVLKS
# B9: il2ra_site1_3nfp_sap_14_mot_HHH_b1_01231_af2_000000247_0001_40_57_H_._HHH_b2_07537_af2_0001_0000400015_0000001_0_0001_af2pred_0001_af2pred_swapped (protein)
# chain: SSSSTELAEELEKLHREIEEAAKEGDEELVRELLERAEEVAKEAGSEHAQRSLEILAKLFSSSSS
# B10: il2ra_site1_3nfp_normal_mot_HHH_b2_02220_000000195_0001_38_52_H_._HEEHE_2417_0001_0000100002_0000001_0 (protein)
# chain: DEEERVQRIVEWLAKLAGVPSVEVSVHNGEIHVEINGDDRAAKLLEKALEEAARRAGVPIHVEVE
# B11: il2ra_site2_2erj_normal_mot_407c3bcab6c065c9e69fee805be8b34b_0001_000000085_0001_19_34_H_._HHH_b2_08156_0001_0000100002_0000001_0_af2pred_0001_1_af2pred_swapped (protein)
# chain: SSSSSDEEEVERLLEEAKELRKEGNPEEALAAMLEALEIALRNDNEELERKIRETRLRLHSSSSS
# B12: il2ra_site2_2erj_normal_mot_HHH_b1_02713_af2_000000038_0001_1_19_H_._HHH_b2_07325_0001_0000300007_0000001_1 (protein)
# chain: SSSSDIEEALIRHALLTAKLLLEEGNPREAEQAVRSAIEYAEFANDEELLEEARKLLEEIGSSSS
# B13: il2ra_site1_1z92_sap_17_mot_c66c727fe7b11027095aa3ef302aaf37_0001_000000167_0001_38_52_H_._665b9007e6d0b9979c9b0c82f83b8fcc_0001_0001_0000200023_0000001_0_0001 (protein)
# chain: SSSSDSRERIEELAEFLARDIKMTGNPWARRLLELLLEKAEKLGDEELREIIEQLLEELRSSSSS
# B14: il2ra_site2_2erj_sap_23_mot_6c2800a769814540b5b47941e710ff28_0001_000000197_0001_35_49_H_._HHH_b1_06377_0001_0000400040_0000001_0_0001 (protein)
# chain: SSSSDEVEELLEEAKRLLEEGNPEEALKVLWEAFRLAFERGDWELSREIFELAEEIQRLLTSSSS
# B15: il2ra_site1_2b5i_sap_9_mot_ee3637cf074d5336168aa4653724bfa7_0001_1_af2_000000268_0001_37_51_H_._HHH_b2_07145_0001_0000300031_0000001_0_0001_af2pred_dldesign_0_a … (protein)
# chain: SSSSDVFEEIERLYNEALRLWREGKKEEAKKLLEKALELAKKAKDEKIAAELEKLLERLKSSSSS
# B16: il2ra_site2_3nfp_normal_mot_HHH_b2_01406_000000272_0001_41_55_H_._a98de6a0dfc3acad88c522cc4a821374_0001_0001_0000300020_0000001_0 (protein)
# chain: DEEVEELIRELLERNPHNLVAAALALLLEEAQKEGDEELLEELKKIVELFREDPHRAFQLVAELS
# B17: il2ra_site2_2erj_normal_mot_HHH_b1_05204_000000055_0001_1_15_H_._HHH_b2_05523_0001_0000100001_0000001_0 (protein)
# chain: SSSSDEEEEEAKRLLEELKRALEEGNFALFVEIAARITLIILELGDEELARLLDELFRELESSSS
# B18: il2ra_site1_1z92_normal_mot_HHH_b1_00097_000000153_0001_1_19_H_._HHH_b1_06833_af2_0002_0000100002_0000001_0 (protein)
# chain: SSSSDLRRLKFVNEVVVELAEEFGLSEEQDRELLRLAARLLNRGYSPEEIEELLRELAERLSSSS
# Biological target: il2ra, P01589
# Test: yeast display titration
row,Binder,apparent Kd
1,B1,inactive: no binding seen
2,B2,inactive: no binding seen
3,B3,inactive: no binding seen
4,B4,inactive: no binding seen
5,B5,inactive: no binding seen
6,B6,inactive: no binding seen
7,B7,inactive: no binding seen
8,B8,inactive: no binding seen
9,B9,inactive: no binding seen
10,B10,inactive: no binding seen
11,B11,inactive: no binding seen
12,B12,inactive: no binding seen
13,B13,inactive: no binding seen
14,B14,inactive: no binding seen
15,B15,inactive: no binding seen
16,B16,inactive: no binding seen
17,B17,inactive: no binding seen
18,B18,inactive: no binding seen

# In a second layout: results already given
row | Binder | apparent Kd
14 | B14 | inactive: no binding seen
15 | B15 | inactive: no binding seen
